Measured data: PubChem BioAssay AID1508588 (Peter MacCallum Cancer Centre, 2020)
The deposit covers about 18,000 reagents; below is a part drawn at random. 790 of all reagents (4.4%) count as active. 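Calls rest on a combination of fold-change classes in drug and vehicle arms, not all shown here.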 Entries without a mark were called inactive.

- Assay: 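Knock-downs boosting vemurafenib effects on melanoma cell growth or lactate release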 (primary screen)
- Cells: human WM266.4 melanoma cells (BRAF V600 mutant)
- Knock-down reagent: siRNA pool against human genes, 40 nM
- Timing: 96 h from transfection to read-out
- Treatment: vemurafenib 300 nM (about IC25), added 48 h after transfection, for 48 h; comparison arm got DMSO vehicle only
- Measured: 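Ratios to non-targeting siRNA for cell gain, counted as DAPI nuclei after minus before drug and averaged over two replicates, and for absorbance-read medium lactate per cell; both binned into fold-change classes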
- Reading the numbers: cell gain with vemurafenib: higher = more cell gain than with non-targeting siRNA; lactate per cell with vemurafenib: higher = more lactate made per cell
- Call rule: 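Enhancement is called by pairing each knock-down's vehicle-arm and drug-arm fold-change classes for viability or glycolysis; which class combinations qualify is not given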
- Calls: active = enhances vemurafenib effect; inactive = no enhancement seen

gene knocked down | cell gain with vemurafenib | lactate per cell with vemurafenib
C18orf32 | 0.58 | 0.68
BAG4 | 0.68 | 1.27
SEC61A1 | 0.12 (active) | 0.12
SP8 | 1.44 | 0.76
MDC1 | 0.4 | 0.73
SPAG7 | 0.7 | 0.55
FADS3 | 0.42 | 2.06
YIPF2 | 0.87 | 1.03
PGK1 | 0.95 | 0.92
PSMG3 | 1.64 | 0.67
FCER1A | 0.57 | 1.25
SNX31 | 0.59 | 0.44
KLHL11 | 0.95 | 0.73
PIEZO2 | 0.74 (active) | -0.02
TIGD7 | 0.54 | 1.09
DLGAP5 | 0.52 | 1.23
ZSCAN16 | 0.63 | 0.61
HMGN2P46 | 0.46 | 0.96
ZNF25 | 0.58 | 0.5
RDH16 | 0.79 | 0.84
NRIP1 | 0.89 | 0.86
SYNJ2BP | 0.61 | 0.58
BEX3 | 0.27 | 2.62
THUMPD3 | 0.45 (active) | 0.06
ITGA10 | 0.71 | 0.95
CT83 | 0.22 | 1.23
BSPRY | 0.44 | 0.86
COLEC12 | 1 | 0.72
APBA1 | 0.79 | 1.18
KIRREL2 | 0.54 | 0.45
RCCD1 | 1.13 | 0.48
FBN2 | 0.17 | 1.7
FLYWCH1 | 0.26 | 1.22
BRD2 | 0.62 | 1.17
VSTM2L | 0.22 (active) | 0.45
H1-0 | 0.81 | 0.72
THEM5 | 0.49 | 0.72
SEC11C | 0.6 | 1.24
CPEB3 | 0.77 | 0.75
LINC03042 | 0.92 | 1.37
BAAT | 0.81 | 0.5
FRMD7 | 0.12 | 1.54
PLSCR1 | 0.67 | 1.18
G6PC2 | 0.74 | 0.9
NFATC3 | 1.16 | 0.4
NR4A3 | 0.3 | 0.65
RAB15 | 0.66 | 0.66
PLPPR3 | 1.21 | 0.8
ATP11C | 0.35 | 0.87
GTF2F1 | 0.41 | 1.96
MRPL10 | 0.38 | 1.92
PRDX4 | 0.77 | 0.83
IFNA16 | 0.41 | 0.76
LYZL6 | 0.14 | 2.46
BPIFA1 | 0.27 | 2.23
SIX6 | 0.39 | 1.23
BMP7 | 0.53 | 0.7
GNPNAT1 | 0.49 | 1.7
USF3 | 0.48 | 0.76
NEK4 | 0.57 | 1.36
CAV3 | 0.73 | 0.88
OR4D1 | 0.27 | 1.57
TRMT2B | 0.37 | 0.86
KIF7 | 0.52 | 1.16
HSPA1A | 1.09 | 0.82
GTF2B | 0.62 | 0.92
H2AZ2 | 0.71 | 0.44
CDC42SE2 | 0.65 | 1.04
LY6G5C | 0.94 | 0.61
SATL1 | 0.55 | 0.95
MTHFR | 0.68 | 0.66
CCDC14 | 0.95 | 1.14
POMT2 | 0.11 (active) | 0.68
MCM2 | 0.33 | 1.87
GATA6 | 0.35 | 0.6
SYNGR3 | 0.72 | 1.1
IFI44 | 0.75 | 0.73
TBCEL | 0.62 | 0.66
OR2A4 | 0.84 | 1.02
ZNF321P | 0.24 (active) | 0.28
CDC16 | 0.6 | 1.03
CNTN5 | 0.72 | 0.84
RNF183 | 1.22 | 0.68
NR2E1 | 0.89 | 0.89

Individual results from the list.
Under “lactate per cell with vemurafenib”, IFI44 has 0.73
Entry of BSPRY under “lactate per cell with vemurafenib”: 0.86
Under “lactate per cell with vemurafenib”, BMP7 shows 0.7
NEK4, cell gain with vemurafenib: 0.57
Entry for SNX31 in “lactate per cell with vemurafenib”: 0.44
GATA6, lactate per cell with vemurafenib = 0.6
